From PMC7696252
These are yes or no findings as the source states them, for the method shown. In cells and extracts the contact can be indirect. Some entries that bind do so weakly or less than the wild type.

The chains behind the UniProt entries cited, without tags or fusion partners.
UniProt Q8N1I0: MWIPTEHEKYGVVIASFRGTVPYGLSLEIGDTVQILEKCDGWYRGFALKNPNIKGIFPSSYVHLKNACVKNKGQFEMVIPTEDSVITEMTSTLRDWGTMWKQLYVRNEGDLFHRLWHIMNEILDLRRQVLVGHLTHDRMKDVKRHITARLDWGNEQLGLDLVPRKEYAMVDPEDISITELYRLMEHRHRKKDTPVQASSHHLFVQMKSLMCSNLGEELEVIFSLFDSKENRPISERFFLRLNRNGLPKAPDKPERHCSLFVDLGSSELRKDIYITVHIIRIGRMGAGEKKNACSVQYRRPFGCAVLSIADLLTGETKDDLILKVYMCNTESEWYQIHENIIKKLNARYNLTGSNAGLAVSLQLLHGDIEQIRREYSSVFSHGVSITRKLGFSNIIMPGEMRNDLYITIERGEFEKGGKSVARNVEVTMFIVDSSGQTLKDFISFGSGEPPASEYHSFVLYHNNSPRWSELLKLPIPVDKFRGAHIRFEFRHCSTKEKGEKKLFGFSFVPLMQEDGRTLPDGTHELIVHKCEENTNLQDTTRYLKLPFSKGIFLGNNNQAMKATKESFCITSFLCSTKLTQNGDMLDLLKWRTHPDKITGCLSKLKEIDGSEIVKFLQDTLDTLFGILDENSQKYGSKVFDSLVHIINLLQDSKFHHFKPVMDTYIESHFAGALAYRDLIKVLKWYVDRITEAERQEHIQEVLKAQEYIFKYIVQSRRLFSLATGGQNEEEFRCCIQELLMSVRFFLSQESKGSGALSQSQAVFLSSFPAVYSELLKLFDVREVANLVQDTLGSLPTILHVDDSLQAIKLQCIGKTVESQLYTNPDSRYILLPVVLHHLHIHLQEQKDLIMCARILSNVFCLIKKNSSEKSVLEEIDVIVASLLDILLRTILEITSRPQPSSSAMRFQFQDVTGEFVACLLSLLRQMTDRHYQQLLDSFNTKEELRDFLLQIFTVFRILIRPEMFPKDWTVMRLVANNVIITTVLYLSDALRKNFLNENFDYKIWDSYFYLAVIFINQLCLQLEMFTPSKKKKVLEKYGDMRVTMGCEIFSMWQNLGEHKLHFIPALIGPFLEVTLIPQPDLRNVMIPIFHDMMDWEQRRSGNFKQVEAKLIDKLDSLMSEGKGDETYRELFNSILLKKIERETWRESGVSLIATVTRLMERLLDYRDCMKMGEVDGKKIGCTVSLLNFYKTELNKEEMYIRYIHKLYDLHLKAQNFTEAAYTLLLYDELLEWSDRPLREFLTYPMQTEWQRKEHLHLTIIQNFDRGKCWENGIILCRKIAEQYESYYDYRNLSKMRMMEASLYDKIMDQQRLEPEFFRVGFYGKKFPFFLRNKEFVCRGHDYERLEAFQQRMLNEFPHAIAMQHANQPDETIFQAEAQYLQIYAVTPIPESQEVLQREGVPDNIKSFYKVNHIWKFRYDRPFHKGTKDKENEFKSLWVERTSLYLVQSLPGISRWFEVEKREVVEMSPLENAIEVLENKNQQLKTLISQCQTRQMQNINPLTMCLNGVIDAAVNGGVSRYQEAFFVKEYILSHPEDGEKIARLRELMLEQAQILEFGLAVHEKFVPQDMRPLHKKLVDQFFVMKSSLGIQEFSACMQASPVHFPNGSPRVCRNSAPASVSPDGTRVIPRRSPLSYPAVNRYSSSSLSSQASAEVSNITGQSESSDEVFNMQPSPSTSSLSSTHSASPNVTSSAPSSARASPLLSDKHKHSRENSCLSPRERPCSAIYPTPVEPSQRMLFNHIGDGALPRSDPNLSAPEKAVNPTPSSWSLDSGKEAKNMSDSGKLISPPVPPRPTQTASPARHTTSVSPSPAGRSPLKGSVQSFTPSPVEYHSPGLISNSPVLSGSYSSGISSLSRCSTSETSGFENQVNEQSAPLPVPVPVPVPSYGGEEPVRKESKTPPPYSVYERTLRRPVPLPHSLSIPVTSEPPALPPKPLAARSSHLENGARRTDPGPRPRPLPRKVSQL

Molecular target: DOCK4 (human (endogenous in MM27 and WM115)) (UniProt Q8N1I0)
Experiment: co-IP; lysates (3 mg) of ShcD overexpressing MM27 cells (also WM115 cells) in PLC lysis buffer (50 mM HEPES pH 7.5, 150 mM NaCl, 10% glycerol, 0.5% Triton X-100, 1.5 mM MgCl2, 1 mM EGTA); anti-DOCK4 antibody 3 h at 4 °C, protein A Sepharose 1 h; anti-IgG as negative control; blot with anti-ShcD

binding: binds
B1: ShcD (protein, UniProt Q6S5L8 1-630)
chain: MRERGQDSLAGLVLYVGLFGHPGMLHRAKYSRFRNESITSLDEGSSGGSVGNKGSPQPPHPALAPHLPTEDATLPSQESPTPLCTLIPRMASMKLANPATLLSLKNFCLGTKEVPRLKLQESRDPGSSGPSSPETSLSRSGTAPPPQQDLVGHRATALTPDSCPLPGPGEPTLRSRQDRHFLQHLLGMGMNYCVRYMGCVEVLQSMRSLDFGMRTQVTREAISRLCEAVPGANGAIKKRKPPVKFLSTVLGKSNLQFSGMNIKLTISTCSLTLMNLDNQQIIANHHMQSISFASGGDPDTTDYVAYVAKDPVNQRACHILECHNGMAQDVISTIGQAFELRFKQYLKNPSLNTSCESEEVHIDSHAEEREDHEYYNEIPGKQPPVGGVSDMRIKVQATEQMAYCPIQCEKLCYLPGNSKCSSVYENCLEQSRAIGNVHPRGVQSQRDTSLLKHTCRVDLFDDPCYINTQALQSTPGSAGNQRSAQPLGSPWHCGKAPETVQPGATAQPASSHSLPHIKQQLWSEECYHGKLSRKAAESLLVKDGDFLVRESATSPGQYVLSGLQGGQAKHLLLVDPEGKVRTKDHVFDNVGHLIRYHMDNSLPIISSGSEVSLKQPVRKDNNPALLHSNK
